In paper PMC7819943, “Rice protein-binding microarrays: a tool to detect cis-acting elements near promoter regions in rice”:
The list shows a part of the results.

Protein sequences, listed by entry. Tags and fused reporters are not part of them.
UniProt Q0JBA9, entry or part of it: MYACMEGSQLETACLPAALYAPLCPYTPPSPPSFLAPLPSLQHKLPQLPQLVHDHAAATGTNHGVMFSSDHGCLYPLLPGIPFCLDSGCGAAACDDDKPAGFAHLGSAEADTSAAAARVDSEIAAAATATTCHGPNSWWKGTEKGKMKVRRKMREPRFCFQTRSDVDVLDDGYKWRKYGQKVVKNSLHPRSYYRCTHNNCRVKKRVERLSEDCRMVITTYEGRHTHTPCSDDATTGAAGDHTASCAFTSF

Each sequence was assayed against OsWRKY34 (Oryza sativa, UniProt Q0JBA9 1-250) (assay: protein-binding microarray (RPBM); PBS, 2% BSA, 51.3 ng/ul salmon testes DNA, 50 uM zinc acetate, 200 nM TF, 25 C, 1 h; high values mean tight binding). Settings: protein: recombinant; tags: N-terminal polyhistidine and DsRed monomer fusion (pET32a); label: CyDye5-dUTP incorporated in the synthesized complementary strand; 3' TTTTT single-stranded linker to array surface; dsDNA, one strand shown.
Summary of the method: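 Transcription factors were each fused at the N-terminus to a polyhistidine tag plus DsRed and expressed in E. coli BL21-CodonPlus before Ni–NTA purification. Binding to a double-stranded custom Agilent array was carried out with 200 nM protein at 25 °C for 1 h in PBS, 2% BSA, salmon testes DNA and 50 µM zinc acetate. The binding signal is per-feature fluorescence intensity, in arbitrary units, on an Axon 4000B scanner.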

Row | Sequence | binding signal
1 | TGGTGACAATCTTTCATTTTTTATTTCAGTGCTCATTTTGCGGAGTCACCTAGTGCAG | 8190 fluorescence intensity (a.u.)
2 | AGGTATCAGTTCCAGGCTACTTCTTGGATTCCAGTTCATACGGAGTCACCTAGTGCAG | 11000 fluorescence intensity (a.u.)
3 | CTGGATTCCATCTTGTATGCCGTTTTTCGACGATTTTTTTCGGAGTCACCTAGTGCAG | 8080 fluorescence intensity (a.u.)
4 | TTTTTAGTTCCACAACACTCATTTCCTTTTCTTTGCGTGACGGAGTCACCTAGTGCAG | 8570 fluorescence intensity (a.u.)
5 | TGATTCAGCGGTTCTTGTCCAACACATTTAATGCCTCTCCCGGAGTCACCTAGTGCAG | 8870 fluorescence intensity (a.u.)
6 | CTCTCTCTGTTTCGGCCTCTCATACTCACTCCTCGGCTTCCGGAGTCACCTAGTGCAG | 11100 fluorescence intensity (a.u.)
7 | TCCAACTTATTTGTCTGCTTGGGAGTTATCTGATGGCAAACGGAGTCACCTAGTGCAG | 8060 fluorescence intensity (a.u.)
8 | GCTCACTTGCTCGCTGTCTTGCTCTTCGTCTTTCCTCCTCCGGAGTCACCTAGTGCAG | 10900 fluorescence intensity (a.u.)
9 | CCCCATTCACCAATCCTGAACTTTATGCTATTTGTTATTTCGGAGTCACCTAGTGCAG | 12400 fluorescence intensity (a.u.)
10 | TATTGACTATGTTTTTTTTTCCCGATTAATATGATAATTTCGGAGTCACCTAGTGCAG | 8370 fluorescence intensity (a.u.)
11 | TCGCCTTGCGGGCCCCACGGTCGCCGCCGGAGACCGGCCTCGGAGTCACCTAGTGCAG | 8200 fluorescence intensity (a.u.)
12 | CCATCTGCTTGGCTTTCTTATATAGGCCGTGTTTAGATTCCGGAGTCACCTAGTGCAG | 12900 fluorescence intensity (a.u.)
13 | CCGCCACCGAGGCACGGCTCTCGAACCTTCCCACTGCTTCCGGAGTCACCTAGTGCAG | 8510 fluorescence intensity (a.u.)
14 | AATAGATCACCACATTCAATGCAGTTCTTCCGATTAAATTCGGAGTCACCTAGTGCAG | 9730 fluorescence intensity (a.u.)
15 | CGGATTTTTTTTTACAGTTTACAGGGGATCTATTTGGGTTCGGAGTCACCTAGTGCAG | 9770 fluorescence intensity (a.u.)
16 | TCTGGCATCCATTCTTCAAATATCTTTTTTGGGGTTTCCACGGAGTCACCTAGTGCAG | 9330 fluorescence intensity (a.u.)
17 | GGTAAAGATTCTTTTGTGATCTGCCTTCTGCTACTTAAGTCGGAGTCACCTAGTGCAG | 8420 fluorescence intensity (a.u.)
18 | CCCTCGCCAGCCCTGCATCCTTTGCTTCCTTAACGTGTGACGGAGTCACCTAGTGCAG | 8790 fluorescence intensity (a.u.)
19 | TACTACTACTATACATCTGCATCTACTACTATTCTACTCTCGGAGTCACCTAGTGCAG | 11200 fluorescence intensity (a.u.)
20 | AAAGCATAGTCTGTAGTACTAGTTCTCTACCGTCACGATCCGGAGTCACCTAGTGCAG | 8430 fluorescence intensity (a.u.)
21 | ACCTCCGTTTCAGTTTATAAGTTGTTTTGACTTTGGTAAACGGAGTCACCTAGTGCAG | 8840 fluorescence intensity (a.u.)

Row | Sequence | binding signal
22 | CTCCGTTTTTTAATAGATGACGCCGTTGACTTTTTCTCACCGGAGTCACCTAGTGCAG | 27800 fluorescence intensity (a.u.)
23 | CCCCTTTGCTTTGCTCGTGCTCTGCTCACATTTGTTTCTCCGGAGTCACCTAGTGCAG | 8050 fluorescence intensity (a.u.)
24 | TTGGTACCAATTTGAACATACACATAGTTGGAGGGGTTTTCGGAGTCACCTAGTGCAG | 8150 fluorescence intensity (a.u.)
25 | TTCCGACCACCCCGTCCTCACCACCGCCGCCGCCGCTCCCCGGAGTCACCTAGTGCAG | 8290 fluorescence intensity (a.u.)
26 | GGGGTGTTTGGTTGAGGGGTGGGTGGGATGGATTGGTCCTCGGAGTCACCTAGTGCAG | 32300 fluorescence intensity (a.u.)
27 | CGTCTCGGCGAATTTTACGGCTTTTGTCATTTCAACAGAACGGAGTCACCTAGTGCAG | 8050 fluorescence intensity (a.u.)
28 | CGGTTCAACTTTCGTCTTTTGAGATCCCTAGTGTGGCAATCGGAGTCACCTAGTGCAG | 8140 fluorescence intensity (a.u.)
29 | CTCTCGACCTTTCGGTCTCTTGATCCCCATTTGTCTCAATCGGAGTCACCTAGTGCAG | 9000 fluorescence intensity (a.u.)
30 | ACCGACTAGCAGGCAGCACGTCATCGCTGGCCTTCATCACCGGAGTCACCTAGTGCAG | 8120 fluorescence intensity (a.u.)
31 | TGCCATCGCGCGCTTTTGCCCACCGCTTCTCTCCTCCTCCCGGAGTCACCTAGTGCAG | 8660 fluorescence intensity (a.u.)
32 | ATCACCTTAATATAATTGATTGAGATCAATAAGGTTTTTACGGAGTCACCTAGTGCAG | 10300 fluorescence intensity (a.u.)
33 | CCCGTCAATCCAGCCATGACAACCTGATCCGTCCACGGTGCGGAGTCACCTAGTGCAG | 8190 fluorescence intensity (a.u.)
34 | ATAGATGTTTCTTGCTGTAGGTATTTGGTTTCCATTCAGCCGGAGTCACCTAGTGCAG | 8260 fluorescence intensity (a.u.)
35 | TTTCAACTATGCCTAATACTCTTGCTGGGTCGGTTGCAACCGGAGTCACCTAGTGCAG | 10200 fluorescence intensity (a.u.)
36 | CCACTTCTTCTCATCCACCCACTGTAGCCTCGAGACCACACGGAGTCACCTAGTGCAG | 8430 fluorescence intensity (a.u.)
37 | GAAGCGAAGCAGGCGACCATTTTGTTTTTTTCCTTTTAATCGGAGTCACCTAGTGCAG | 8820 fluorescence intensity (a.u.)
38 | ATAATTATACTCTCGTTTTGCATATCTTCTAACTTTTTTTCGGAGTCACCTAGTGCAG | 9780 fluorescence intensity (a.u.)
39 | AGTGATATGTTTTCAGTTCAGACCTGAGCTGAGTTTCCTTCGGAGTCACCTAGTGCAG | 8770 fluorescence intensity (a.u.)
40 | GCAGAATTTTTCCCAGAGGCGTTTCTCATTTTCTAGACAGCGGAGTCACCTAGTGCAG | 9960 fluorescence intensity (a.u.)
41 | TTGTTAATCCAACCTGCCTCTATGCCTATGCGTATGTTCTCGGAGTCACCTAGTGCAG | 9180 fluorescence intensity (a.u.)
42 | TGTGTACTATGCTGTTTGGAGTATGCGCTGAATCTGATTACGGAGTCACCTAGTGCAG | 8420 fluorescence intensity (a.u.)

3 records drawn at random from those above:
Row | Sequence | binding signal
24 | TTGGTACCAATTTGAACATACACATAGTTGGAGGGGTTTTCGGAGTCACCTAGTGCAG | 8150 fluorescence intensity (a.u.)
27 | CGTCTCGGCGAATTTTACGGCTTTTGTCATTTCAACAGAACGGAGTCACCTAGTGCAG | 8050 fluorescence intensity (a.u.)
29 | CTCTCGACCTTTCGGTCTCTTGATCCCCATTTGTCTCAATCGGAGTCACCTAGTGCAG | 9000 fluorescence intensity (a.u.)
